Source: PubChem BioAssay AID1487 (National Center for Advancing Translational Sciences (NCATS), 2009)
“And” between values parts separate entries of the source, which are not always exact repeats. Equal values may be shown once. About 25 (0.01%) of roughly 200,000 compounds were called active. The shares of active, inactive and inconclusive entries below differ from those in the screen. Calls follow the shape of the dose curve; as a rule, active = well fitted inhibition curve with a large enough effect in the signal ratio, with a control signal flat (not every such curve was filed as active); inconclusive = small, poorly fitted or top-dose-only effect, or effect the other way, or a change in a side signal; inactive = flat fitted curve, though single readings scatter; the % refers to the signal ratio. Potencies beside an inconclusive call are fits to weak or partial responses and may not hold up.

assay: qHTS Assay for Modulators of Lamin A Splicing; conditions: HeLa LMNA splicing GFP/RFP minigene ratio, 48 h; ratio change, negative = inhibition: at 46.1 µM (top of the series) unless noted
How it was run: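 S3 HeLa cells stably expressing lamin A-EGFP splicing minigene plus DsRed2, 600 cells/well, 48 h compound exposure at 37C. Laser-scanning cytometry; analysed as GFP (500-530 nm)/RFP (575-640 nm) total intensity ratio; 0.5% DMSO vehicle.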
% is scaled to controls: 0 for no effect and ±100 for the full control effect; potency is read from the fitted curve at half-maximal effect.

Row | SMILES | ratio change, negative = inhibition | Potency
1 | S=c1[nH]ncn1/N=C/c1ccccc1 | inactive | 
2 | O=[N+]([O-])c1ccc(NCc2ccc3c(c2)OCO3)cc1 | inactive | 
3 | Cc1ccc(S(=O)(=O)N2c3ccccc3NC(=O)C2CC(=O)Nc2ccccc2)cc1 (stereo not drawn) | inactive | 
4 | O=c1c(-c2ccc(F)cc2)nc2cncnc2n1Cc1ccc(F)cc1 | inactive | 
5 | Cc1ccc(CNC(=O)CCCN2C(=O)COc3ccc(C)cc32)cc1 | inconclusive: -14.3% [at 46 µM] | 
6 | Cc1cc([N+](=O)[O-])nn1CCCC(=O)Nc1cc(Oc2ccccc2)cc([N+](=O)[O-])c1 | inactive | 
7 | CC(=O)Nc1ccc(S(=O)(=O)N(C2=NCC(C)S2)c2ccccc2)cc1 (stereo not drawn) | inactive | 
8 | CC(C)C(C(=O)O)N1C(=O)/C(=C/C=C/c2ccco2)SC1=S (stereo not drawn) | inconclusive: 8.57% | 
9 | CN1c2ccccc2C(C)(C)C12CC(c1cccc(S(=O)(=O)N3CCCC3)c1)=NO2 (stereo not drawn) |  | inconclusive: 2.24 µM [fluorescent, full curve]
10 | CCOC(=O)C1(CCc2ccccc2)CCN(Cc2cnc(N(C)C)s2)CC1 | inconclusive: -11.2% [at 46 µM] | 
11 | O=C(COc1ccc(C(=O)c2ccccc2)cc1)NCc1ccc(F)cc1 | inconclusive: -20.2% | 
12 | O=C(NC1CC(=O)N(c2ccc(Cl)cc2)C1)c1ccc(S(=O)(=O)N2CCOCC2)cc1 (stereo not drawn) | inconclusive: -23.3% [at 46 µM] | 
13 | COc1cccc(NC(=S)NN=C2CCCCCC2)c1 | inconclusive: -4.35% [at 46 µM] | 
14 | O=C(Cn1cnc2ccccc2c1=O)N1CCc2ccccc2C1 | inconclusive: 4.75% [at 46 µM] | 
15 | CCCN(CCC)c1nc2ccccc2nc1C(C#N)C(=O)OCCOC (stereo not drawn) | inconclusive: 7.44% | 
16 | NS(=O)(=O)c1ccc(NCc2c(F)cccc2Cl)cc1 | inconclusive: -28.4% | 
17 | O=C(c1cc2ccccn2n1)N1CCN(c2cccc(C(F)(F)F)c2)CC1 |  | inconclusive: 8.91 µM [fluorescent, partial curve]
18 | O=C(COC(=O)/C=C/c1ccccc1[N+](=O)[O-])NC1CCS(=O)(=O)C1 (stereo not drawn) | inactive | 
19 | Nc1n[nH]c(-c2ccccc2)c1-c1ccccc1 | inconclusive: 16% | 
20 | COC(=O)c1ccc(-n2c(C)cc(C(=O)CCl)c2C)cc1 |  | inconclusive: 35.5 µM [cytotoxic, single point]
21 | CCCC(=O)c1ccc(OC(=O)c2c(-c3ccccc3Cl)noc2C)cc1 | inconclusive: -17.5% [at 46 µM] | 

Reprinted at random: 4 compounds from above.
Row | SMILES | ratio change, negative = inhibition | Potency
2 | O=[N+]([O-])c1ccc(NCc2ccc3c(c2)OCO3)cc1 | inactive | 
8 | CC(C)C(C(=O)O)N1C(=O)/C(=C/C=C/c2ccco2)SC1=S (stereo not drawn) | inconclusive: 8.57% | 
6 | Cc1cc([N+](=O)[O-])nn1CCCC(=O)Nc1cc(Oc2ccccc2)cc([N+](=O)[O-])c1 | inactive | 
16 | NS(=O)(=O)c1ccc(NCc2c(F)cccc2Cl)cc1 | inconclusive: -28.4% | 

The list goes on:

Row | SMILES | ratio change, negative = inhibition | Potency
22 | O=c1ccn(C2OC(COP(=O)(O)OP(=O)(O)OP(=O)(O)O)C(O)C2O)c(=O)[nH]1 (stereo not drawn) | inactive | 
23 | C[C@H]1Cc2c(-c3ccccc3)nc3c(c2CO1)CN(C(=O)NCCc1c[nH]c2ccccc12)CC3 | inconclusive: -17.2% [at 9.22 µM] | 
24 | Cc1ccc(NC(=O)COC(=O)C2(c3ccc(Cl)cc3)CCCC2)cc1 | inconclusive: -49.7% | 
25 | COc1ccc(CNS(=O)(=O)c2ccc(OC)cc2)cc1 | inactive | 
26 | COc1cccc(NC(=O)c2ccc3nc(Cc4ccccc4)oc3c2)c1 | inconclusive: 6.2% [at 46 µM] | 
27 | CCc1ccc(-n2c(SCc3cccc(F)c3)nc3[nH]ncc3c2=O)cc1 |  | inconclusive: 35.5 µM [activator, single point]
28 | S=C(NCc1ccco1)N1CCN(C/C=C/c2ccccc2)CC1 | inconclusive: -14.8% [at 46 µM] | 
29 | CN(Cc1ccon1)C(=O)CCc1nnc(Cc2ccc(-c3ccccc3)cc2)o1 | inconclusive: -8.76% [at 46 µM] | 
30 | FC(F)(F)c1ccc(-c2noc(CN3CCCN(C4CCCCC4)CC3)n2)cc1 | inactive | 
31 | Cc1onc(C(=O)NCc2cccs2)c1[N+](=O)[O-] |  | inconclusive: 25.1 µM [activator, partial curve, poor fit]
32 | COc1ccc(C2Nc3ccccc3C(=O)N2c2ccccc2)cc1COc1ccccn1 (stereo not drawn) | inconclusive: 10.1% | 
33 | COc1ccc(Cl)cc1C(=O)NCCc1ccc(S(=O)(=O)NC(=O)NC2CCCCC2)cc1 | inconclusive: -14.5% and inconclusive: -14% | 
34 | Nc1nc(=O)n([C@@H]2CS[C@H](CO)O2)cc1F | inconclusive: -8.71% | 
35 | CCOC(=O)N1CCN(C2OC(=O)c3ccccc32)CC1 (stereo not drawn) | inconclusive: -15.1% | 
36 | COc1ccc(NS(=O)(=O)c2ccc(C)c(NC(=O)c3ccc(C)c(S(=O)(=O)N4CCOCC4)c3)c2)cc1 |  | inconclusive: 14.1 µM [fluorescent, partial curve, poor fit]
37 | CC(C)(CNS(C)(=O)=O)SCc1ccc(Cl)cc1 | inconclusive: -14% [at 46 µM] | 
38 | CC(=O)c1cccc(N(CC(=O)NCC2CCCO2)C(=O)CCC(=O)Nc2cc(C)on2)c1 (stereo not drawn) | inconclusive: 1.81% | 
39 | C=C1C(=O)O[C@H]2C1CC[C@@](C)(O)C13C=CC(C)(C21)C1(C3)C(=O)O[C@@H]2C3C(C)=CCC3[C@](C)(O)C[C@H](OC(C)=O)C21 (stereo partly drawn) | inconclusive: -34.3% | 
40 | Cc1cccc(N2CCN(c3ncnc4c3cnn4-c3ccc(Cl)cc3)CC2C)c1 (stereo not drawn) |  | inconclusive: 35.5 µM [inhibitor, single point]
41 | CCC(=O)Nc1ccccc1C(=O)OCc1cc(=O)n2cc(C)sc2n1 | inactive | 
42 | Cc1c(O)ccc(NS(=O)(=O)c2ccccc2)c1C | inactive | 

Row | SMILES | ratio change, negative = inhibition | Potency
43 | COC(=O)Cc1c(C)c2ccc(OCC(C)=O)c(C)c2oc1=O | inactive | 
44 | Cc1cccc(Nc2nc(-c3ccc4c(c3)OCCO4)cs2)c1 | inactive | 
45 | CN(C(=O)c1cccnc1)c1nnc(-c2cccnc2)s1 | inconclusive: 1.77% | 
46 | O=C(NCC1CCCO1)c1sc2cc(Cl)ccc2c1Cl (stereo not drawn) | inconclusive: -22.6% | 
47 | COC(=O)c1ccc(C(=O)OC)nc1 | inactive | 
48 | O=C(N/N=C/c1ccc([N+](=O)[O-])o1)c1cccc(S(=O)(=O)N2CCOCC2)c1 | inconclusive: -18.1% [at 46 µM] | 
49 | CCCC1=Nc2cc(C(=O)NCCCOCC)ccc2Sc2ccccc21 | inconclusive: -24% | 
50 | O=C(Nc1cccc(Cl)c1)c1cc(S(=O)(=O)N2CCC3(CC2)OCCO3)ccc1F | inconclusive: -8.7% [at 46 µM] | 
51 | COc1ccccc1NS(=O)(=O)c1ccc(Cl)c(NC(=O)c2sc3cc(Cl)ccc3c2Cl)c1 | inconclusive: 20.7% [at 46 µM] | 
52 | Cc1ccc(-c2nc3ccccc3[nH]2)cc1NC(=O)c1sc2ccccc2c1Cl | inconclusive: 4.04% | 
53 | CC1CCCC(NC(=O)COC(=O)CSc2ccc3ccccc3c2)C1C (stereo not drawn) | inconclusive: 17.8% | 
54 | CC(CCc1ccccc1)NC(=O)COc1ccc(S(=O)(=O)N2CCOCC2)cc1[N+](=O)[O-] (stereo not drawn) | inconclusive: -33.1% | 
55 | Cc1ccc(NC(=O)C(c2ccccc2)N(C)C)cc1Cl (stereo not drawn) | inactive | 
56 | Cc1noc(C)c1CSc1nc2ccccc2c(=O)n1-c1ccc(F)cc1F | inactive | 
57 | COc1ccc(-c2nc(CNC(=O)NC3CCCCC3)c(C)o2)c(OC)c1 | inactive | 
58 | Cc1nn(C)c(C(=O)NN)c1Cl | inconclusive: 9.56% [at 46 µM] | 
59 | O=S(=O)(NCCc1cn2ccsc2n1)c1ccc(Cl)cc1 | inactive | 
60 | OC(CNc1nc2ccccc2s1)c1ccccc1 (stereo not drawn) | inactive | 
61 | Cc1cc(=O)n2[nH]c(-c3ccc(C(C)(C)C)cc3)cc2n1 |  | inconclusive: 14.1 µM [inhibitor, single point]
62 | CCOc1ccc(C(=O)NC(=S)Nc2cccc(S(=O)(=O)NC3=NCCC3)c2)cc1 | inconclusive: -19.7% [at 46 µM] | 
63 | O=C(Oc1cccc(O)c1)C1CCCCC1 | inconclusive: -20.4% [at 9.22 µM] | 

Row | SMILES | ratio change, negative = inhibition | Potency
64 | COc1ccc2oc(=O)c(-c3nc(-c4ccc(C)c(C)c4)cs3)cc2c1 | inconclusive: 16.7% [at 46 µM] | 
65 | O=C(NCc1n[nH]c(=S)n1-c1ccccc1)c1cccs1 | inconclusive: 25.3% [at 46 µM] | 
66 | Cc1ccc(C(=O)N2CCN3C(=O)c4ccccc4C23c2ccc(Cl)cc2)cc1 (stereo not drawn) |  | inconclusive: 14.1 µM [cytotoxic, partial curve]
67 | O=C(NC1CCCCC1)N1CCCCCCC1 | inactive | 
68 | Fc1ccc(-c2cc(-c3nnc4n3CCCCC4)c3ccccc3n2)cc1 | inactive | 
69 | O=C(NCC(c1ccc2c(c1)OCO2)N1CCN(c2ccccc2F)CC1)c1ccccc1F (stereo not drawn) | inconclusive: -27.3% [at 46 µM] | 
70 | Cc1ccc2[nH]c(CSc3nnc(NC(=O)COc4ccc(F)cc4)s3)cc(=O)c2c1 | inconclusive: 1.33% [at 46 µM] | 
71 | O=C(CNC(=O)c1ccc(F)cc1)N/N=C/c1ccc(O)c([N+](=O)[O-])c1 | inactive | 
72 | O=C(Nc1ccc2c(c1)CCC2)C1CCCO1 (stereo not drawn) | inactive | 
73 | N#CCCn1c(=O)cnc2cnc(Oc3cccc(Cl)c3)nc21 | inactive | 
74 | COc1ccc(NC(=O)COC(=O)CCCOc2ccc(Cl)cc2Cl)cc1Cl | inactive | 
75 | Cc1cc(C)n(CCc2nc(-c3ccc(F)cc3)cs2)n1 | inconclusive: -21.4% | 
76 | COc1ccc(CCNC(=O)CSc2ccccc2)cc1OC | inconclusive: 1.16% | 
77 | Cc1c(/C=N/n2cnnc2)c2ccccc2n1CCOc1ccccc1 | inconclusive: 8.68% | 
78 | CCOP(=O)(OCC)/C(C#N)=C/c1ccc([N+](=O)[O-])cc1 | inconclusive: 15.1% [at 46 µM] | 
79 | O=C(NCC(=O)N(Cc1cccs1)C(C(=O)NC1CCCCC1)c1ccco1)c1ccco1 (stereo not drawn) | inactive | 
80 | O=c1[nH]ncc2c3ccccc3n(Cc3ccccc3F)c12 | inactive | 
81 | O=C1c2ccccc2NC(c2ccc(-c3ccc(Br)cc3)o2)N1O (stereo not drawn) | inconclusive: -48.8% | 
82 | COCc1cc(C)n(CC(=O)OC)c(=O)c1C#N | inconclusive: -6.7% [at 46 µM] | 
83 | C/C(=N\NC(=O)C(N)=O)c1cccc(C(F)(F)F)c1 | inconclusive: -1.42% [at 46 µM] | 
